## Primary screen of a compound library

The values are deposited in ChEMBL (CHEMBL3988442, “University of Dundee, Small-Polar-MMV Screening Library” (2021)).

Mtb glucose medium: 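Whole-cell growth test on Mycobacterium tuberculosis, read after 3 days in glucose-containing 7H9 medium; the read-out is not stated. Compounds at 50 µM. The record gives no direction; compounds that gave an IC50 in retests scored well above the rest, so higher reads as more growth inhibition. Of about 69,000 compounds tested this way, about 760 (1.1%) reached 50% or more in at least one test.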
Mtb cholesterol medium: 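Whole-cell growth test on Mycobacterium tuberculosis, read after 4 days in a medium based on cholesterol and the lipid DPPC; the read-out is not stated. Compounds at 50 µM. The record gives no direction; compounds that gave an IC50 in retests scored well above the rest, so higher reads as more growth inhibition. Of about 69,000 compounds tested this way, about 370 (0.54%) reached 50% or more in at least one test.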

The filed quantity is “Percent Effect” (%). The controls that fix the scale are not given in the record; negative values are as filed. The compounds are a random part of those screened. Two or more numbers in one place are separate tests of the same structure; such repeats can differ widely.

- Cc1nccc(N2CCCC2CCNS(C)(=O)=O)n1 (stereo not drawn) : Mtb glucose medium: 3.297%; Mtb cholesterol medium: 15.9%
- CC(C)OCCOCC(O)CN(C)C(=O)Nc1ccc(F)cc1Cl (stereo not drawn) : Mtb glucose medium: -11.03%; Mtb cholesterol medium: -7.968%
- CCCc1ccc(S(=O)(=O)NCCNC(=O)c2ccoc2)cc1 : Mtb glucose medium: -3.111%; Mtb cholesterol medium: 1.965%
- Cc1cc(C)c2c(N3CCCN(C(=O)C4CCC4)CC3)ncnc2n1 : Mtb glucose medium: -28.81%; Mtb cholesterol medium: -10.02%
- N#Cc1cc(F)c(NCCCOCC2CCOC2)c(F)c1 (stereo not drawn) : Mtb glucose medium: -1.452%; Mtb cholesterol medium: 4.073%
- COc1ccccc1NC(=O)NCc1cn[nH]c1 : Mtb glucose medium: 11.89%; Mtb cholesterol medium: 8.936%
- CC(=O)N1CCC(NC(=O)c2ccccc2-n2cnnn2)CC1 : Mtb glucose medium: 14.09%; Mtb cholesterol medium: -4.225%
- Cc1ccc(CNCC2CCCN2c2cccnn2)s1 (stereo not drawn) : Mtb glucose medium: -9.919%; Mtb cholesterol medium: -26.63%
- CCN(CCc1nc2cc(C)ccc2[nH]1)C(=O)[C@@H](N)COC : Mtb glucose medium: -35.76%; Mtb cholesterol medium: -3.192%
- O=C(c1cc(=O)[nH]c(=O)[nH]1)N1CCCCC1c1ccc(F)cc1 (stereo not drawn) : Mtb glucose medium: -13.16% and -6.657%; Mtb cholesterol medium: -22.24%
- CCOCc1ccccc1NC(=O)NCC(C)(O)c1ccsc1 (stereo not drawn) : Mtb glucose medium: 14.41%; Mtb cholesterol medium: -11.06%
- CCc1nccn1C1CCCN(C(=O)c2ccc(N(C)C)nn2)C1 (stereo not drawn) : Mtb glucose medium: -22.28%; Mtb cholesterol medium: -3.236%
- Cc1ccc2[nH]c(C3CCN(CC(N)=O)CC3)nc2c1 : Mtb glucose medium: -9.475%; Mtb cholesterol medium: -35.15%
- O=C(NC1CCCC1)N1CCCCC1c1nc(C2CC2)no1 (stereo not drawn) : Mtb glucose medium: -14.89%; Mtb cholesterol medium: -6.446%
- O=C(CNC(=O)Nc1c(F)cccc1Oc1ccccc1)NC1CC1 : Mtb glucose medium: 5.292% and 35.59%; Mtb cholesterol medium: 7.501%
- Cc1nn(C)c(Cl)c1C1CCCN1Cc1nc(C2CC2)no1 (stereo not drawn) : Mtb glucose medium: 1.344%; Mtb cholesterol medium: -7.486%
- O=C(NCc1nn(-c2ccccc2)c2c1CCC2)N1CCSCC1 : Mtb glucose medium: -19.44%; Mtb cholesterol medium: 0.8374%
- COCc1ccc(CNCc2c(C)nn(C)c2N(C)C)cc1 : Mtb glucose medium: -12.14%; Mtb cholesterol medium: -41.99%
- CO[C@H]1CCN(S(=O)(=O)c2cn(C)cn2)[C@H]1Cc1ccncc1 : Mtb glucose medium: 1.854% and -5.42%; Mtb cholesterol medium: 10.69%
- CCN1CCOC(CNCc2ccccn2)C1 (stereo not drawn) : Mtb glucose medium: 11.06%; Mtb cholesterol medium: 1.759%
- CCS(=O)(=O)Nc1ccn(Cc2cccc(F)c2)n1 : Mtb glucose medium: 16.02%; Mtb cholesterol medium: 9.138%
- [H][C@@]12CC(=O)N(Cc3csc(C)n3)[C@@]1([H])CCN2S(C)(=O)=O : Mtb glucose medium: 8.603%; Mtb cholesterol medium: 5.769%
- Cc1oc(C(=O)O)cc1S(=O)(=O)Nc1cc(Br)ccc1Cl : Mtb glucose medium: -24.94%; Mtb cholesterol medium: -18.56%
- CC(C)[C@H]1CN(c2cnccn2)C[C@@H]1NC(=O)C1(C#N)CCOCC1 : Mtb glucose medium: 9.374%; Mtb cholesterol medium: 17.4%
- CC(=O)c1cccc(OCCCC(=O)N(C)CC(N)=O)c1 : Mtb glucose medium: -8.769% and 8.033%; Mtb cholesterol medium: 10.42%
- CCCc1noc2ncc(C(=O)N3CCCC3c3cnn(C)c3)cc12 (stereo not drawn) : Mtb glucose medium: -3.503%; Mtb cholesterol medium: -4.017%
- COCCN1CCN(Cc2noc(C3CC3)n2)CC1C (stereo not drawn) : Mtb glucose medium: -31.2%; Mtb cholesterol medium: -16.62%
- Cc1c[nH]c(CN(C)C(=O)c2cccc(CCC(C)(C)O)c2)n1 : Mtb glucose medium: 0.5423%; Mtb cholesterol medium: 2.348%
- CC(C)CCC(=O)N1CCN(C(C)c2nnc(CC(C)C)o2)CC1 (stereo not drawn) : Mtb glucose medium: -62.73%; Mtb cholesterol medium: -48.65%
- Cc1nn(C)cc1CNCc1ccc(N(C)C)cc1 : Mtb glucose medium: 26.74%; Mtb cholesterol medium: 9.655%
- Cc1cc(CN(C)Cc2ccccc2N2CCCCC2)n[nH]1 : Mtb glucose medium: 18.33%; Mtb cholesterol medium: -6.147%
- O=C(NCC(O)c1ccoc1)Nc1c(F)cccc1F (stereo not drawn) : Mtb glucose medium: 32.95%; Mtb cholesterol medium: 12.25%
- CC(C)C(=O)NCCNC(=O)C(C)OCC(F)(F)F (stereo not drawn) : Mtb glucose medium: -4.401%; Mtb cholesterol medium: -14.46%
- O=C(COc1ccccc1)NCC1CCN(Cc2ccsc2)CC1 : Mtb glucose medium: -12.56%; Mtb cholesterol medium: -6.951%
- CC(C)C1CN(Cc2nccn2C)CCC(=O)N1CC1CC1 (stereo not drawn) : Mtb glucose medium: -5.473%; Mtb cholesterol medium: -14.32%
- CCc1nnc2n1CCN(C(=O)C1CCC(n3cccc3)CC1)C2 (stereo not drawn) : Mtb glucose medium: -38.47%; Mtb cholesterol medium: -10.13%
- Cn1c(CCC(=O)N2CCC3(CCCO3)CC2)nc2cccnc21 : Mtb glucose medium: -31.21%; Mtb cholesterol medium: 28.16%
- Cc1cc(N(C)C)nc(C2COCCN2Cc2nccn2C)n1 (stereo not drawn) : Mtb glucose medium: -8.162%; Mtb cholesterol medium: -2.511% and 3.26%
- Cc1ccc(CN2CCC3(C2)C(=O)N(CC2CC2)c2ccccc23)s1.O=C(O)C(F)(F)F (stereo not drawn) : Mtb glucose medium: 41.19%; Mtb cholesterol medium: 13.52%
- CN(Cc1ccc(F)cc1)C(=O)NCC1(N2CCOCC2)CCSC1 (stereo not drawn) : Mtb glucose medium: -3.375%; Mtb cholesterol medium: -24.98%
- CCOC(=O)N1CCN(C(=O)c2ccc3ccn(C)c3c2)CC1 : Mtb glucose medium: 29.43%; Mtb cholesterol medium: 7.947%
- CC(C)(CNC(=O)c1ccc(Cl)o1)NC(=O)OC(C)(C)C : Mtb glucose medium: -15.45% and 5.791%; Mtb cholesterol medium: -4.663%
- CN1CC(=O)N(c2cccc(F)c2)CC12CCN(S(=O)(=O)C1CC1)C2.O=C(O)C(F)(F)F (stereo not drawn) : Mtb glucose medium: -3.36%; Mtb cholesterol medium: -12.31%
- COc1ccc(F)cc1C(=O)N1CCCC(CNS(C)(=O)=O)C1 (stereo not drawn) : Mtb glucose medium: -25.08%; Mtb cholesterol medium: -6.685%
- Nc1nnc(SCC(=O)c2cc3c(cc2Cl)NC(=O)C3)s1 : Mtb glucose medium: -6.891%; Mtb cholesterol medium: -9.785%

The last 5 entries again:

| compound | Mtb glucose medium | Mtb cholesterol medium |
|---|---|---|
| `CCOC(=O)N1CCN(C(=O)c2ccc3ccn(C)c3c2)CC1` | 29.43 | 7.947 |
| `CC(C)(CNC(=O)c1ccc(Cl)o1)NC(=O)OC(C)(C)C` | -15.45 and 5.791 | -4.663 |
| `CN1CC(=O)N(c2cccc(F)c2)CC12CCN(S(=O)(=O)C1CC1)C2.O=C(O)C(F)(F)F` (stereo not drawn) | -3.36 | -12.31 |
| `COc1ccc(F)cc1C(=O)N1CCCC(CNS(C)(=O)=O)C1` (stereo not drawn) | -25.08 | -6.685 |
| `Nc1nnc(SCC(=O)c2cc3c(cc2Cl)NC(=O)C3)s1` | -6.891 | -9.785 |